Data published in paper doi:10.1101/432989 (bioRxiv, 2018).
These are yes or no findings as the source states them, for the method shown. A result given as binding can be weak or reduced; the word gives no strength.

B1: MazE-mt9 in pTRG (bacterial two-hybrid prey) (protein, UniProt P9WJ85 1-77)
chain: MSTSTTIRVSTQTRDRLAAQARERGISMSALLTELAAQAERQAIFRAEREASHAETTTQAVRDEDREWEGTVGDGLG
B2: MazE-mt1 in pTRG (bacterial two-hybrid prey) (protein, UniProt P0CL61 1-76)
chain: MKLSVSLSDDDVAILDAYVKRAGLPSRSAGLQHAIRVLRYPTLEDDYANAWQEWSAAGDTDAWEQTVGDGVGDAPR

Target: MazF-mt9 in pBT (bacterial two-hybrid bait) (Mycobacterium tuberculosis)
Experiment: two-hybrid

Row | Binder | binding
1 | B1 | binds
2 | B2 | binds
